# Source: article doi:10.1101/2025.01.27.635192
# B1: Kip3-mNeonGreen (protein, UniProt P53086 1-805)
# chain: MNVPETRQSSIVVAIRVRPFTSMEKTRLVNEASGAEANFPGLGDSSLILPMSNNSDSDIDIDAEEGSTRSKRNSLLRRKVIRPEGIRKIVDCVDDRMLIFDPADRNPLNKVSDQVLNSMRARATKATASSINNSNATNKFSSQRRRHGGEIKFVFDKLFDETSSQARVYKETTSPLLDSVLDGFNSTVFAYGATGCGKTYTVSGTPSQPGIIFLAMEELFNKITDLKDEKDFEISLSYLEIYNERIRDLLKPETPSKRLVIREDTQNHIKVANLSYHHPNTVEDVMDLVVQGNINRTTSPTEANEVSSRSHAVLQIHIMQTNKLVDLTSQHTFATLSIIDLAGSERAAATRNRGIRLHEGANINRSLLALGNCINALCLNDGSRSCHIPYRDSKLTRLLKFSLGGNCKTVMIVCISPSSSHYDETLNTLKYANRAKEIKTKIIRNQQSLSRHVGSYLKMITEQKRQIEELREREEKMISLKLTKYKLNKEKIQLAINECVNRVQQTYAGVETYQVAKTLKSLILCKRRFLQMVKLEVDNLILLFEREESTAAEMQPVISNCRMISGQLYNKIHELEMKFDETDTLSSVIHQVHSIDLNKLREMEDWDETYDLVYLESCLNQISELQRNEILVNSSIMTEKLMSDPGLNSRFKFLSKWLMNRTPNIESIIQDLVHIDEEFESFARTFIANPDSNFTNTNINIINTTAADLAVPAETLQRQNFSQKKVKWTSPDLSPSPMIEPQPELEPELHQDQDAIASEVDVSMQDTTFNEQGPSTPSAPTTAVPRRKMRSSLLTHQSLLATARK
# Biological target: wild-type yeast α/β-tubulin heterodimer (S. cerevisiae (endogenous in S288C yeast))
# Assay: TIRF microscopy of Kip3-mNeonGreen on surface-held microtubules
binder,measurement,value
B1,binding,binds

# These are yes or no findings as the source states them, for the method shown. A result given as binding can be weak or reduced; the word gives no strength.
